Results are given in words; binding and its absence hold for the method and conditions named. In cells and extracts the contact can be indirect. Some results given as binding are weak or reduced against the parent protein; the word gives no strength.
Target: T1, interferon regulatory factor 1 (human (endogenous in A375)) (UniProt P10914)
T1 sequence: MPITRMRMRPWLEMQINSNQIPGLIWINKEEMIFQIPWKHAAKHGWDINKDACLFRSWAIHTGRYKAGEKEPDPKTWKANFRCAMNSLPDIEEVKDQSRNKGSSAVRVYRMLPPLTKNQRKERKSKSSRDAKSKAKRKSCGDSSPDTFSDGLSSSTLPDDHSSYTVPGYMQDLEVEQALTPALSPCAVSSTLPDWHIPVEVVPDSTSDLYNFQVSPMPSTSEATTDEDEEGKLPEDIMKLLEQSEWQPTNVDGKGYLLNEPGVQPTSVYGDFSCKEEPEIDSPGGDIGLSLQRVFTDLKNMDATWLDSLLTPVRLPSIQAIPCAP
Experiment: proximity ligation; fixed A375 cells, primary antibodies against the two proteins, Duolink PLA probes, signal only when the two proteins are <= 40 nm apart; siP4HB or IRF1 interference cells compared with control

The chains behind the UniProt entries cited, without tags or fusion partners. Residues count along the entry.
UniProt P07237, residues 18-508: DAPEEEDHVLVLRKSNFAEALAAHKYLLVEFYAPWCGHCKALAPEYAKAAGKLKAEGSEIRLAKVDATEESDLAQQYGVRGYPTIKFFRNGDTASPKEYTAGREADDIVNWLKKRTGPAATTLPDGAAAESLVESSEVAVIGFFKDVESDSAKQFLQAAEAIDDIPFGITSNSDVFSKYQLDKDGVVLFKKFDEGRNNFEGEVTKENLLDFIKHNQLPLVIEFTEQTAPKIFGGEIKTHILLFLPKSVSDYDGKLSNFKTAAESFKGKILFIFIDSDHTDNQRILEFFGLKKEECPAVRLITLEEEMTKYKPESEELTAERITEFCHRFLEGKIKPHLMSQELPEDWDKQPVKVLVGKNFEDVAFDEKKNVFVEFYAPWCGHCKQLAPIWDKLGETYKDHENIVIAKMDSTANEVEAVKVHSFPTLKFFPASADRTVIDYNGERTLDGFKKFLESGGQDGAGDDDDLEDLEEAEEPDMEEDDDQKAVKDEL

With “prolyl 4-hydroxylase beta polypeptide (from UniProt P07237 18-508)” the binding was “binds”.

Source: PMC7532676, “Salidroside can target both P4HB-mediated inflammation and melanogenesis of the skin” (Theranostics, 2020)
